Test results as given in patent US20070054328A1.
Results are given in words; binding and its absence hold for the method and conditions named. In cells and extracts the contact can be indirect. Some entries that bind do so weakly or less than the wild type. For part of these data: Where a sequence is shown, tags or fusion partners need not be part of it.

By UniProt entry, the sequences of proteins in these tests, tags left out. Where a name states a change or a piece, a line headed by the entry shows the natural chain unless it says otherwise.
UniProt Q12923: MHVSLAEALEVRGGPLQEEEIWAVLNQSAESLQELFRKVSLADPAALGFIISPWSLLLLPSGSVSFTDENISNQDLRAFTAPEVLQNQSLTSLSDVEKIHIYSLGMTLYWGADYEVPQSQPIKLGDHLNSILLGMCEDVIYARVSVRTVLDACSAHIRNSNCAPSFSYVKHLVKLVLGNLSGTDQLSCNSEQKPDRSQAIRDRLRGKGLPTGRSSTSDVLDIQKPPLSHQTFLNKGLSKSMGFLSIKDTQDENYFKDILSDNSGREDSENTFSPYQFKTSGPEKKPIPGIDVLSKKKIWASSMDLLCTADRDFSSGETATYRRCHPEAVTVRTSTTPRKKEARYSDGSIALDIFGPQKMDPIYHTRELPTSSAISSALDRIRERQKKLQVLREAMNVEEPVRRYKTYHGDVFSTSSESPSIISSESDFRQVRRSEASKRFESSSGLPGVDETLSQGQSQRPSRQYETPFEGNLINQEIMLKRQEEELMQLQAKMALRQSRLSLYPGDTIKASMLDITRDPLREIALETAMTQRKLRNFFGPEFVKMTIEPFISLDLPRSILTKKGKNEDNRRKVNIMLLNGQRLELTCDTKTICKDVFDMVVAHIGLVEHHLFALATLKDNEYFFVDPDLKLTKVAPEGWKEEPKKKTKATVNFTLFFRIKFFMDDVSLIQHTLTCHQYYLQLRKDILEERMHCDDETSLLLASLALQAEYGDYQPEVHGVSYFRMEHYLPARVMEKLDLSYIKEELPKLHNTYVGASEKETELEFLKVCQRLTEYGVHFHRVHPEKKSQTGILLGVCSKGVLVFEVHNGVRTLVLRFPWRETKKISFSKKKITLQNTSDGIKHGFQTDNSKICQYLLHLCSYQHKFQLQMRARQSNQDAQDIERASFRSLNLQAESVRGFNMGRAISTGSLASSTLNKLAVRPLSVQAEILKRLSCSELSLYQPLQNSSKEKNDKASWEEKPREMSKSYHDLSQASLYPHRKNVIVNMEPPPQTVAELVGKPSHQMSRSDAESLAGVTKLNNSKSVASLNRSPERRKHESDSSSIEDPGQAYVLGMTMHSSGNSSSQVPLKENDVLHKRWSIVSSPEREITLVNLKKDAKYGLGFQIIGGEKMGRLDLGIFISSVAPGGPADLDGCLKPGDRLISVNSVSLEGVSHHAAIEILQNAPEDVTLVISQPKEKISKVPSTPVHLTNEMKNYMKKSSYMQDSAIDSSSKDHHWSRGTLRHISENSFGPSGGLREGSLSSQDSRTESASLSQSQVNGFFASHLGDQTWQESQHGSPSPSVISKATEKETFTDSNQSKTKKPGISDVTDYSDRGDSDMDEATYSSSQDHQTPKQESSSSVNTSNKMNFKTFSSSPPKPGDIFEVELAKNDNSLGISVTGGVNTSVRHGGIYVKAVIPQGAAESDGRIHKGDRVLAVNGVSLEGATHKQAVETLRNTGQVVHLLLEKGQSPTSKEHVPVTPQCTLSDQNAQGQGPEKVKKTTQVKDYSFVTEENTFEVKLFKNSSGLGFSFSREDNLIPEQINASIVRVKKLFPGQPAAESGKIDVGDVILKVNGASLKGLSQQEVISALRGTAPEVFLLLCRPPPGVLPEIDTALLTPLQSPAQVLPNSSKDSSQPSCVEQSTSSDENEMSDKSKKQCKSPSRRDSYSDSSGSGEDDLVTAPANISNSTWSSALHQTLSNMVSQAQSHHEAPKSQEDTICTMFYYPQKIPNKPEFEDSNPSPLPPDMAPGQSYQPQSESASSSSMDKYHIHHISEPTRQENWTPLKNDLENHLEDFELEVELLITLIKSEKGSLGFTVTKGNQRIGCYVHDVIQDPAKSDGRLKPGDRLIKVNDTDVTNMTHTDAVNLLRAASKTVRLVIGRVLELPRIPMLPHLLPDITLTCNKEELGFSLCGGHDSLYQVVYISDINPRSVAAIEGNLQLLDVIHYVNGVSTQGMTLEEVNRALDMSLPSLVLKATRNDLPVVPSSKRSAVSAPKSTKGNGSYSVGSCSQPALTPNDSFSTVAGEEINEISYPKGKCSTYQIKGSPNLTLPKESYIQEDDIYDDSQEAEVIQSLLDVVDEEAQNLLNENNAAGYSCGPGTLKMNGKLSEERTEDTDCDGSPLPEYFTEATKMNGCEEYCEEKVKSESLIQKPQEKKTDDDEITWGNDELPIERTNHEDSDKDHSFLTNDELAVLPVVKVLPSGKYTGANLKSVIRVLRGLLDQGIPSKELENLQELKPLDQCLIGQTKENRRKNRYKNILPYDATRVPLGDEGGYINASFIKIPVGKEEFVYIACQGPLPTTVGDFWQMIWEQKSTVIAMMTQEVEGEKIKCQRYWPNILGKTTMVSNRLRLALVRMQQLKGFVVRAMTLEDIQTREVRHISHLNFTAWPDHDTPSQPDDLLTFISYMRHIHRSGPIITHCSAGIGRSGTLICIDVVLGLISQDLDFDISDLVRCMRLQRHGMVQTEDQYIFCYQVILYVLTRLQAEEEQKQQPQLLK
UniProt Q9HB21: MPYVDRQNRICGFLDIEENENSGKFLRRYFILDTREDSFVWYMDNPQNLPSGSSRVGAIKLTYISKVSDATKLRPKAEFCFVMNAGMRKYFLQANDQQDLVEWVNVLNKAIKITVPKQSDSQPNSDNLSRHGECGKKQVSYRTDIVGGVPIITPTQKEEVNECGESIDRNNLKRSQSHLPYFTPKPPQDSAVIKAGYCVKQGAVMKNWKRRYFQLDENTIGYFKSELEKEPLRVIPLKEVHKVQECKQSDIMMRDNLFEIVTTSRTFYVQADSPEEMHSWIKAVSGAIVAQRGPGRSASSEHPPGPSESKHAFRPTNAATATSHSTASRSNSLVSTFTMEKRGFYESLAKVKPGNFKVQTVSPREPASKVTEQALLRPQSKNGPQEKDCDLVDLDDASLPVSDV

What was measured:
[1] = molecular target: endogenous PTPL1 (Protein Tyrosine Phosphatase Like-Protein-1) of 293 cells (human) (UniProt Q12923); test: GST pull-down from 293 cells
[2] = molecular target: endogenous PTPL1 (Protein Tyrosine Phosphatase Like-Protein-1) of 293 cells (human) (UniProt Q12923); test: GST pull-down from 293 cells; pNPP phosphatase assay and anti-PTPL1 immunoblot
[3] = molecular target: endogenous PTPL1 (Protein Tyrosine Phosphatase Like-Protein-1) of 293 cells (human) (UniProt Q12923); test: GST pull-down from 293 cells; immunoblot with two anti-PTPL1 antibodies
FLAG-TAPP2 [4] = molecular target: T1, FLAG-TAPP2 (UniProt Q9HB19); test: co-expression in 293 cells; glutathione-Sepharose pull-down
T1 sequence (looked up): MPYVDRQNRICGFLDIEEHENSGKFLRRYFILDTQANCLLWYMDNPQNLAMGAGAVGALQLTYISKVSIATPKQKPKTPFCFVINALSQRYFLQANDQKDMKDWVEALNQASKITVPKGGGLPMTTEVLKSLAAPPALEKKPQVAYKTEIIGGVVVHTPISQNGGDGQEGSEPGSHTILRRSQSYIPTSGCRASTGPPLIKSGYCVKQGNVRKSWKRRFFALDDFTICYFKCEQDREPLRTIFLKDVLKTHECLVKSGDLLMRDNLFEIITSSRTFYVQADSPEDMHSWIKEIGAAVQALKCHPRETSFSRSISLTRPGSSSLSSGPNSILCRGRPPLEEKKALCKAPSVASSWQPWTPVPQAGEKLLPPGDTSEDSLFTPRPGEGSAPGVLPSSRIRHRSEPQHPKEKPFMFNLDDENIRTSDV

FLAG-TAPP1 [5] = molecular target: FLAG-TAPP1 (UniProt Q9HB21); test: as above
FLAG-TAPP2 [6] = molecular target: T1, FLAG-TAPP2; test: co-expression in 293 cells; glutathione-Sepharose pull-down, anti-FLAG immunoblot
FLAG-TAPP1 [7] = molecular target: FLAG-TAPP1 (UniProt Q9HB21); test: as above
FLAG-TAPP2 [8] = molecular target: T1, FLAG-TAPP2; test: co-expression binding assay in 293 cells; glutathione-Sepharose pull-down, anti-FLAG immunoblot
FLAG-TAPP1 [9] = molecular target: FLAG-TAPP1 (UniProt Q9HB21); test: as above
[10] = molecular target: endogenous PTPL1 (Protein Tyrosine Phosphatase Like-Protein-1) of 293 cells (human) (UniProt Q12923); test: reciprocal co-immunoprecipitation from 293 cell lysate; immunoblot
[11] = molecular target: endogenous PTPL1 (Protein Tyrosine Phosphatase Like-Protein-1) of 293 cells (human) (UniProt Q12923); test: reciprocal co-immunoprecipitation from 293 cell lysate
[12] = molecular target: endogenous PTPL1 (Protein Tyrosine Phosphatase Like-Protein-1) of 293 cells (human) (UniProt Q12923); test: co-immunoprecipitation from 293 cell lysate

Measured: binding

GST-TAPP1 (wild type, expressed in 293 cells) (from UniProt P08515 1-218; Q9HB21 1-404)
binds: [1] | [2] | [3]

GST fusion of the HA tagged 1st PDZ domain of PTPL1 (residues 1099 to 1199) (from UniProt P08515 1-218; Q12923 1099-1199)
binds: FLAG-TAPP2 [4] | FLAG-TAPP1 [5] | FLAG-TAPP2 [6] | FLAG-TAPP1 [7] | FLAG-TAPP2 [8] | FLAG-TAPP1 [9]

GST-TAPP2 (wild type, expressed in 293 cells) (from UniProt P08515 1-218; Q9HB19 1-425)
binds: [1] | [2] | [3]

endogenous TAPP1 of 293 cells (from UniProt Q9HB21 1-404)
binds: [10] | [11] | [12]
